Data as given in article PMC11587861, “A high-throughput search for intracellular factors that affect RNA folding identifies E. coli proteins PepA and YagL as RNA chaperones that promote RNA remodelling”.

What was measured:
[1] = molecular target: T1, YagL-HTH (UniProt P77607); assay: filter binding; settings: 75 mM Tris-HCl pH 7.5, 0.4 mM spermidine, 0.1 mM MgCl2, 50 mM NaCl, 0.5 mM EDTA, 0.25 mM DTT, 6% glycerol, 10 min at room temperature, 50 fmol RNA in 60 µL, recombinant protein, residues 187-232, label: 5'-32P (printed as [31]P)
T1 sequence (looked up): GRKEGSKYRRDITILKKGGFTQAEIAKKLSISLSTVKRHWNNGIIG

[2] = molecular target: T2, YagL-dHTH (UniProt P77607); assay: filter binding; settings: minimal binding at any tested concentration; 75 mM Tris-HCl pH 7.5, 0.4 mM spermidine, 0.1 mM MgCl2, 50 mM NaCl, 0.5 mM EDTA, 0.25 mM DTT, 6% glycerol; 10 min at room temperature; 50 fmol RNA in 60 µL; recombinant protein; residues 1-186; label: 5'-32P (printed as [31]P)
T2 sequence (looked up): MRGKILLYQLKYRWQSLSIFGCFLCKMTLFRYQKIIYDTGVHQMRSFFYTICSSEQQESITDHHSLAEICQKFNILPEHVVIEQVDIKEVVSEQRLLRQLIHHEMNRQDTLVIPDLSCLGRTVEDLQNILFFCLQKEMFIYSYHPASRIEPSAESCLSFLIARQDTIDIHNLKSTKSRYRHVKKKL

AUGUGGAAAAUCUCUAGCAGU [21 R+]
binding result ([1]; Hill coefficient 2.1 ± 0.5, range given over all three RNAs, ssRNA twofold tighter than hairpin): binds

CUGCUAGAGAUUUUCCACAU [21 R-]
binding result ([1]; Hill coefficient 2.4 ± 0.6, range given over all three RNAs, ssRNA twofold tighter than hairpin): binds

GCUCUAGAGCAUUAUGUUCAGAUAAGG [hairpin]
binding result [2]: binds more weakly | binding result ([1]; Hill coefficient 1.8 ± 0.3, range given over all three RNAs, twofold weaker than ssRNAs): binds

The exact form of at least one protein or probe is not confirmed. For some of these results: Weaker means in comparison with the reference protein, sequence or condition of that experiment. At least one verdict rests on a figure or table, not on a statement of the authors. Tags and fusion partners may be left off the protein sequences shown.
